Tested on: Human platelets
Test: Fatty acid content of platelet lipids after CLA treatment (gas liquid chromatography)
Assay type: cell-based
Details: platelets treated 2 hours, 25 μM; for CLA content (% total lipids) 9Z, 11Z-: content of the 9Z, 11Z isomer; for CLA content (% total lipids) 10E, 12Z-: content of the 10E, 12Z isomer

Row | SMILES | CLA content (% total lipids) 9Z, 11Z- [% total lipids] | CLA content (% total lipids) 10E, 12Z- [% total lipids]
1 | CCCCCCC=CC=CCCCCCCCC(=O)O [9Z, 11Z-CLA, 9,11-octadecadienoic acid] | 0.23 | 0.03
2 | CCCCCC=CC=CCCCCCCCCC(=O)O [10E, 12Z-CLA, 10,12-octadecadienoic acid] | 0.03 | 0.66
